This passage reports median seed-adjusted z-score results from PubChem BioAssay AID1347426 (Functional Genomics Laboratory (NCATS/FGL), 2020).

The whole screen tested about 31,000 sequences, of which about 1,400 (4.5%) were called active.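 The calls were made as follows: active = median seed-adjusted z-score above 1 or below -1; inactive = the rest.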 This is one part of the list.

This assay is described as follows: Novel Modifiers of Survival Motor Neuron (SMN) Protein: Gene Identification via Genome-wide siRNA Screen.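 Also: luminescence tracks full-length SMN protein made from the SMN2 reporter.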 The settings on record: HEK293T SMN2-luciferase reporter, siRNA knockdown, 72 h; actives lie on both sides. The method in brief:
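HEK293T cells stably carrying an SMN2 promoter/splicing cassette–luciferase reporter were reverse-transfected with 1 pmol siRNA per well (druggable-genome library, 3 siRNAs per gene) and grown 72 h at 37 °C. Luminescence, normalized to negative-control siRNA and log10-transformed, was scored as MAD.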
Consider CUUCAUAUCUUAAUAGUCATT against ZNF121, for which the median seed-adjusted z-score was inactive: 0.0687.

In the case of GAGCUGAGCUGUCGAUAUATT against SUPT6H, the median seed-adjusted z-score is active: -2.54.

With CCAUCCCAAAUUUACAACATT against SARS2, the median seed-adjusted z-score was inactive: 0.524.

Turning to GCACCACAACUCUACUGUATT against ETNK1, the median seed-adjusted z-score was inactive: 0.299.

As to CUGAUAGGCCCAAAGCUGATT against CABP4, the median seed-adjusted z-score is inactive: 0.146.

In the case of AGACAAGAAGUGCAAGUCUTT against ART1, the median seed-adjusted z-score was inactive: 0.0033.

For GACACGAUUCUUUACCAAATT against CHEK1, the median seed-adjusted z-score is active: -5.1.

Consider GAACAUUGGUAAUUAAACUTT against PCDHA4, for which the median seed-adjusted z-score was inactive: -0.268.

CCAUCCUUACAUGAGCAUATT against MAPK6: the median seed-adjusted z-score is inactive: -0.156.

On to AGUCUACGAGAACUACUGATT against CHST11, for which the median seed-adjusted z-score was inactive: -0.275.

GAGUUGCGAUUAUCAGUCUTT against STX7: the median seed-adjusted z-score is inactive: 0.251.

In the case of CAUCCAAGAUUAUAGUGGATT against PNLIP, the median seed-adjusted z-score is inactive: 0.385.

As for GCACUUUACCACAAUCUCATT against FCAMR, the median seed-adjusted z-score is inactive: 0.137.

Regarding AUGUCUAGCAAAUCCAAAATT against GATA3, the median seed-adjusted z-score is inactive: -0.197.

Consider UGGGUUGGAUGAUACCUUATT against GATA5, for which the median seed-adjusted z-score was inactive: 0.15.

Turning to GGCAAUUCUAAGUACCAGATT against GTF2B, the median seed-adjusted z-score is inactive: -0.855.

For UCAUCGACUUGACCAACAATT against LCN9, the median seed-adjusted z-score was inactive: -0.897.

Turning to CAUCUGCAUUGAUAGCGUATT against CRIM1, the median seed-adjusted z-score was inactive: -0.155.

As for GAGAAACUAGAAUACAGAATT against ADPRH, the median seed-adjusted z-score is inactive: -0.406.

Consider AGCUCGUACUGUUCCAAUATT against MMP19, for which the median seed-adjusted z-score is inactive: 0.43.

Consider GGAGGGAUGGUUACUGUUATT against TOX4, for which the median seed-adjusted z-score was inactive: 0.

In the case of CCGAGGAGCUGAUUCAGGATT against RABEP2, the median seed-adjusted z-score is inactive: -0.0546.

With AGAGAGAAAUUGUGCGAGATT against ACTG2, the median seed-adjusted z-score was inactive: 0.157.

For CAACAUUGGAAAAUACAGATT against LAP3, the median seed-adjusted z-score is inactive: 0.0175.

Take GGACUGAAAUACGAAAGUUTT against TBCEL: the median seed-adjusted z-score is inactive: 0.567.

In the case of CGGAAUACCAGGAACUUAATT against TSHR, the median seed-adjusted z-score was inactive: 0.851.

On to CGCUCAACGUGGAUCAUUUTT against CAMTA2, for which the median seed-adjusted z-score is inactive: 0.152.

In the case of GGAUGUGGUUUAUUAUACATT against SLC16A9, the median seed-adjusted z-score is inactive: 0.125.

Turning to ACAAGAUCCCGUUAAAGGATT against PI3, the median seed-adjusted z-score was inactive: 0.493.

Regarding GGAUAUUAAGGACAGGAAATT against RAN, the median seed-adjusted z-score is active: -3.09.

As to GAUCGACAACAACCCGUUUTT against TBX2, the median seed-adjusted z-score is inactive: 0.42.

With CUGUCGCUGUCUGACCAGATT against ESRRA, the median seed-adjusted z-score was inactive: -0.833.

As for GGAAAGAAAUCACCUAAGATT against TBX19, the median seed-adjusted z-score is inactive: 0.327.

In the case of GCUUCUCGUUGGGUACCGUTT against ACTRT2, the median seed-adjusted z-score was inactive: -0.117.

For CGAUGGAGAUGUUUCGGGATT against KCNA2, the median seed-adjusted z-score was active: -1.03.

On to GAGUUUUUAUGGACUCUCATT against GRIK4, for which the median seed-adjusted z-score was inactive: 0.249.

As to GCAGUAUGAGGGUCCCACATT against IL12RB1, the median seed-adjusted z-score is inactive: -0.126.

As to AGCUCAUCCUGAUGCUGAATT against JDP2, the median seed-adjusted z-score is inactive: -0.202.

In the case of GGCUCAUUCUACUCAGGGATT against BAHCC1, the median seed-adjusted z-score is inactive: 0.

Consider CUGUGAAAAUGGGACGGGATT against NDUFA6, for which the median seed-adjusted z-score was inactive: -0.457.

CCGCAGUUCUAGGUCCAAUTT against ABCC2: the median seed-adjusted z-score is inactive: -0.0464.

For GCACAAUUAUUUCACGCUUTT against ETNK2, the median seed-adjusted z-score was inactive: -0.74.

As for CACCCACCUCAGAUUGAUATT against MBTPS2, the median seed-adjusted z-score is inactive: -0.324.

Turning to AACUUGUCGCUGCCCAAUATT against ABCA2, the median seed-adjusted z-score is active: -1.18.

Take GGAUACUUGUGGUUGACUUTT against ERCC4: the median seed-adjusted z-score was inactive: -0.00878.

CAACUUCGAUAAAGAGCUUTT against HSFX1: the median seed-adjusted z-score was inactive: 0.0575.

In the case of CAGCAACUGAAAUACGGAATT against RXFP1, the median seed-adjusted z-score was inactive: 0.314.

In the case of CGGUUUACUUUGCCGAAGATT against CSRP1, the median seed-adjusted z-score is inactive: -0.312.

As to GCCUCAUCGUUCUGCAGAATT against ZNF628, the median seed-adjusted z-score was inactive: -0.121.

Regarding CAAUCCAGCUAAUCCAGAATT against NRAS, the median seed-adjusted z-score is inactive: -0.581.

On to GGUCUGACUUGGUGGACAATT against CPEB1, for which the median seed-adjusted z-score was inactive: -0.349.

Turning to ACCGAAUGCUGGAUCUUUATT against ABAT, the median seed-adjusted z-score was inactive: 0.0191.

GGUUUUUGCUGGACAAACATT against PPP2R3C: the median seed-adjusted z-score was inactive: 0.295.

In the case of CACCUGAACUUAUUGUCUUTT against SCARA5, the median seed-adjusted z-score was inactive: -0.278.

In the case of GGACAUCUAUUGGACCGUUTT against GFRA3, the median seed-adjusted z-score is inactive: -0.326.

For CGUGAUAGGGAGAACCGCATT against GPR97, the median seed-adjusted z-score was inactive: -0.0155.

As to CGUCAGUGCUUCGCAUACATT against ZBTB45, the median seed-adjusted z-score was inactive: 0.

For AGACUAACAUUGACCGGCUTT against ACTN3, the median seed-adjusted z-score was inactive: -0.109.

As for AAAUGUCUAUUGCCGUAAATT against TUBA1C, the median seed-adjusted z-score is inactive: 0.157.

As to GGAGGGACAAGAUCAACAATT against USF2, the median seed-adjusted z-score was inactive: 0.352.

Regarding GGAUCAAUCUUCUCAGGCATT against NEUROD1, the median seed-adjusted z-score was inactive: 0.

With GCCUAAAGCCGACAUUUAUTT against MOS, the median seed-adjusted z-score is inactive: 0.105.

For the sequence GGACAGAUCUACUACCUGATT against TMED2, the median seed-adjusted z-score was inactive: 0.288.

Take CCAGAAGAUUGACAAAUCUTT against ADRB2: the median seed-adjusted z-score was inactive: 0.0987.

For ACAAGGUCCUAGAUAUGGATT against GPR113, the median seed-adjusted z-score is inactive: -0.434.

With GCAAUGCCCUCUAUCAAUATT against IP6K1, the median seed-adjusted z-score is inactive: -0.317.

On to ACACUGCGCUGGUUGAAAATT against FGFR1, for which the median seed-adjusted z-score is inactive: -0.562.

Consider CCAAGAUUCAAAACACGAATT against B4GALT2, for which the median seed-adjusted z-score is inactive: -0.0367.

As for GCUCAGCUCUUUGAAACAUTT against RAB24, the median seed-adjusted z-score was inactive: 0.123.

With GAAAUAGUCUAGUAAGCUUTT against PDE7A, the median seed-adjusted z-score was inactive: 0.861.

In the case of GAAUUGCUCCACCAGAUAATT against NAALAD2, the median seed-adjusted z-score was inactive: -0.00068.

With GAAAUUGACAUGUUGGAUATT against ANXA4, the median seed-adjusted z-score is inactive: -0.0932.

As for GGAUAACAGUGAAGCCGAATT against TNR, the median seed-adjusted z-score was inactive: 0.498.

Regarding CAUUGUAGAUUACUCAGAATT against RHOT1, the median seed-adjusted z-score was inactive: -0.189.

Turning to GCAGCAUUAUAGUCGUAUUTT against PRSS7, the median seed-adjusted z-score was inactive: 0.0614.

As for GGUUACAAGUGUAUAACAATT against CD59, the median seed-adjusted z-score was inactive: 0.79.

In the case of CCGUGUACAUUGCUGGUCATT against HNRPLL, the median seed-adjusted z-score is inactive: 0.

Take CAAAGAUAAGAUGCUUAUATT against AGPAT5: the median seed-adjusted z-score is inactive: 0.571.

For CUACAUCACUCUUCUGGUATT against KCNV1, the median seed-adjusted z-score was inactive: 0.109.

Consider CAACCAGACUCGUCUUGAUTT against INHBC, for which the median seed-adjusted z-score was inactive: -0.66.

UCAGUUCGAUGAUAUCAGATT against NEK10: the median seed-adjusted z-score was inactive: -0.0464.

Consider CCGCUUGACUAUGAGCUCATT against TTC7A, for which the median seed-adjusted z-score is inactive: -0.303.

On to AGACCAUUCUAGAGAUCAATT against NAIP, for which the median seed-adjusted z-score is inactive: -0.172.

For the sequence GUACUGAGAAGAAACCGGATT against FBXO11, the median seed-adjusted z-score was inactive: 0.733.

On to GCAGUCACAUCUACCAGAATT against ZNF83, for which the median seed-adjusted z-score is inactive: 0.118.

As to GAUAAUCACUGAUCGAACUTT against DAZL, the median seed-adjusted z-score is inactive: -0.441.

Consider GGACCAUCCGUUCGCCUUATT against APBA1, for which the median seed-adjusted z-score was inactive: 0.305.

For the sequence GGUCAGAGGUUUUGCAUCATT against MSRB2, the median seed-adjusted z-score was inactive: 0.373.

For GCAAGAUUGUGAUACGUUUTT against ZNF615, the median seed-adjusted z-score was inactive: 0.0912.

As to CUACGUGACAGACUAUUUATT against INSR, the median seed-adjusted z-score was inactive: 0.172.

Consider CAACAACUUUAGCUAUGUUTT against SLC16A5, for which the median seed-adjusted z-score is inactive: -0.151.

On to CUGACAUCAUGACAACAAATT against POSTN, for which the median seed-adjusted z-score is inactive: -0.45.

In the case of CUAAGAAGCAGAAACUAGATT against TSEN34, the median seed-adjusted z-score is inactive: 0.918.

Take CACGAAAACUUACCCAGAATT against DGUOK: the median seed-adjusted z-score was inactive: 0.0168.

Take CCUUCAGUCAUUUCAGUAATT against ZNF823: the median seed-adjusted z-score was inactive: 0.143.

For the sequence GGUUUGACGCAAUCCUGAATT against HMGCL, the median seed-adjusted z-score is inactive: 0.046.

As to CAGCGCAUAUGGUAUGGAATT against SLC27A2, the median seed-adjusted z-score was inactive: -0.647.

GGCUAUUGGUGAAUUUUGATT against DDC: the median seed-adjusted z-score was inactive: 0.395.

Take GGACACUGGGCAUAGAUUUTT against ALPP: the median seed-adjusted z-score was inactive: 0.

For GAACUCUUACUAAUGUCUATT against DERA, the median seed-adjusted z-score is inactive: -0.197.

Turning to GGAAAAGCUUUACUCGAAATT against ZNF662, the median seed-adjusted z-score is inactive: 0.352.

With GGAAAUAGGUCUAGUACUATT against PRPF4B, the median seed-adjusted z-score was active: -2.29.

On to CGGCUGACAUUAGCUCCCATT against DUSP5, for which the median seed-adjusted z-score was inactive: 0.324.

On to GCAGUAUGUUUCUCAGGUUTT against TLL2, for which the median seed-adjusted z-score was inactive: 0.195.

GGUGUUAUCCUAUGAGGUATT against MPP4: the median seed-adjusted z-score was inactive: 0.13.

Consider GUGCUUUGCUGCAAGAUAATT against LYZ, for which the median seed-adjusted z-score is inactive: -0.0538.

Regarding GGAGUUCAGUUCUGCCCAATT against NDOR1, the median seed-adjusted z-score was inactive: 0.328.

For the sequence AGUACAUCAUUGAUAACAATT against CTSS, the median seed-adjusted z-score was inactive: 0.123.
